Laboratory results as given in paper PMC5309790.
Where a chain is given by its changes, count along the chain named. Results are given in words; binding and its absence hold for the method and conditions named. In cells and extracts the contact can be indirect. Some results given as binding are weak or reduced against the parent protein; the word gives no strength. For some assays here: Tags and fused reporters may be left off the sequences shown. One block for each substance: values may come before it.

The chains behind the UniProt entries cited, without tags or fusion partners.
UniProt Q13546: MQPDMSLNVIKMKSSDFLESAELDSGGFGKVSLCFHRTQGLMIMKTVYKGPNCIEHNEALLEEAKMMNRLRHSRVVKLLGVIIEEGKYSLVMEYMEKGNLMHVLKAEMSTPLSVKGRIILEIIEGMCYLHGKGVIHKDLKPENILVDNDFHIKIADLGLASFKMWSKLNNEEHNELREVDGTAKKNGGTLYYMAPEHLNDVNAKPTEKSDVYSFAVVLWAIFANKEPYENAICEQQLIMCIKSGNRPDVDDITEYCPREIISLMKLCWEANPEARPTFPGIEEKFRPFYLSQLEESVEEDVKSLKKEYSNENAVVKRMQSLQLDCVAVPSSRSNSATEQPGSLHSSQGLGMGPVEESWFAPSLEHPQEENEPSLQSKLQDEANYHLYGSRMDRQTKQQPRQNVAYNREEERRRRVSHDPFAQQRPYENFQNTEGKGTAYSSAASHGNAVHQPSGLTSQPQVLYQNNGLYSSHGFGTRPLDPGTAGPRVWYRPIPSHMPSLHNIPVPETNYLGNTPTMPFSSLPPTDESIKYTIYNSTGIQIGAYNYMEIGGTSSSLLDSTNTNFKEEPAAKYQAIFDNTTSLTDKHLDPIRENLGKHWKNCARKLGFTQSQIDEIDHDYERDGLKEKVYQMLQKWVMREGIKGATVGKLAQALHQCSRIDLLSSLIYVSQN
UniProt Q9Y572: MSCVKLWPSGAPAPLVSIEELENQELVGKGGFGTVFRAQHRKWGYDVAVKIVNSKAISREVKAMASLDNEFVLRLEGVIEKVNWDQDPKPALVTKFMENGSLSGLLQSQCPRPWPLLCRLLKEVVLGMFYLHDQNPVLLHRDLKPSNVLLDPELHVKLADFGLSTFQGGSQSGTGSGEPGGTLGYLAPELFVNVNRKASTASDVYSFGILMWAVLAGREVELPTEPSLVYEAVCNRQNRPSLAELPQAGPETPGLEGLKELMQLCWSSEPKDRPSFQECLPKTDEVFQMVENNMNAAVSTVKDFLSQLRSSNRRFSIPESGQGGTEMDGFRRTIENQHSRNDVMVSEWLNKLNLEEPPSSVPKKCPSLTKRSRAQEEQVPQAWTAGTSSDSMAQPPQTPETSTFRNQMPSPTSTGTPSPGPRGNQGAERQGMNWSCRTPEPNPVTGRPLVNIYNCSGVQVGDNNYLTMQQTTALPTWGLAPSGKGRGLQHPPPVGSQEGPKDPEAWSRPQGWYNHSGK
UniProt Q9QZL0: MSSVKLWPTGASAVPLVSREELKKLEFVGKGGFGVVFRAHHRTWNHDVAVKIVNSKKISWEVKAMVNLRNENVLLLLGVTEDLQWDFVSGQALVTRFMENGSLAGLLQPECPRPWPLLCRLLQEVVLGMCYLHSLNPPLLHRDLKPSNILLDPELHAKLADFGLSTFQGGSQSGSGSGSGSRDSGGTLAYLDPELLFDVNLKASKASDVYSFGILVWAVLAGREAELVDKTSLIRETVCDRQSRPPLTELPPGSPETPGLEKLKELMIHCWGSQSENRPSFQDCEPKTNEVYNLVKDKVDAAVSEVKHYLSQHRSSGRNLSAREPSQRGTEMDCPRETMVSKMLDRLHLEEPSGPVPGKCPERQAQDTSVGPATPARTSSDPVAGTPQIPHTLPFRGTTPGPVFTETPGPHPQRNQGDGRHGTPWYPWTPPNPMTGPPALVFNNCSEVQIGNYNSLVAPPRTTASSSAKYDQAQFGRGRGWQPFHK

Columns and labels:
[1] = target: RIP1, endogenous in HeLa-RIP3 cells (human (endogenous in HeLa)) (UniProt Q13546); experiment: co-IP; necrosome formation in HeLa-RIP3 cells induced by human TNF, with or without BHA/amytal; details in Supplementary Fig. 6f-g, not shown
[2] = target: T1, Flag-tagged RIP1 3CS-S161E in RIP1 KO L929 cells (mouse) (UniProt Q60855); experiment: co-IP; necrosome immunoprecipitation from L929 cells (Flag-RIP1 knock-in or RIP1 KO reconstituted with RIP1 variants) treated with mTNF + zVAD, with or without BHA/amytal; anti-Flag M2 beads at 4 °C overnight; blots with anti-RIP1, anti-RIP3, anti-FADD
T1 sequence: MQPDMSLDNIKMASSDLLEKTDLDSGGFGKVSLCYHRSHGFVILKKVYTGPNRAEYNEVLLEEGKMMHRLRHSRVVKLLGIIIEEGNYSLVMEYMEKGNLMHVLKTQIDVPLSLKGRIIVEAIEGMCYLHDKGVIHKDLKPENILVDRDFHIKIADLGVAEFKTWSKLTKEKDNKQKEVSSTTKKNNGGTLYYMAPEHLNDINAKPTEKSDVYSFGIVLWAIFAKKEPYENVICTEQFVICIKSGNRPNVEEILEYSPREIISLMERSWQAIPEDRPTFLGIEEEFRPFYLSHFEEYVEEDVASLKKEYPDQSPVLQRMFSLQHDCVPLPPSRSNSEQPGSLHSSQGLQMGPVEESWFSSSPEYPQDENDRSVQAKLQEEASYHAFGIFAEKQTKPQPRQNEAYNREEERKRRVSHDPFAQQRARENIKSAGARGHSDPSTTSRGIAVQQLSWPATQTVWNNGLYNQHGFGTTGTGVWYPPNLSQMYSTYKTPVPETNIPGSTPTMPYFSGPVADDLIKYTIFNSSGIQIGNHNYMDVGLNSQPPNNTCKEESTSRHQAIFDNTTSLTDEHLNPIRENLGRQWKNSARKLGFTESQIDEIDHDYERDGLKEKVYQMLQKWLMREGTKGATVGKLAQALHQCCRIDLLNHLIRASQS

[3] = target: T2, Flag-tagged RIP1 KK-AT-S161E in RIP1 KO L929 cells (mouse) (UniProt Q60855); experiment: as above
T2 sequence: T1 sequence with K45A, K46T, S257C, S268C, S586C

[4] = target: T3, Flag-tagged KK-AT RIP1 expressed in RIP1 KO HEK293T cells (mouse) (UniProt Q60855); experiment: co-IP; co-expression in RIP1 KO HEK293T cell line and co-immunoprecipitation; details in Supplementary Fig. 7, not shown
T3 sequence: T1 sequence with K45A, K46T, E161S, S257C, S268C, S586C

[5] = target: T4, KK-AT-S161E RIP1 co-expressed in RIP1 KO HEK293T cells (mouse) (UniProt Q60855); experiment: as above
T4 sequence: T1 sequence with K45A, K46T, S257C, S268C, S586C

Substance: RIP3 overexpressed in HeLa cells (HeLa-RIP3) (from UniProt Q9Y572 1-518)
binding [1]: binds

Substance: RIP3, endogenous in L929 cells (from UniProt Q9QZL0 1-486)
binding [2]: binds | binding [3]: binds

binding [4]: binds | binding [5]: binds
Substance: RIP3 co-expressed with RIP1 in RIP1 KO HEK293T cells (from UniProt Q9QZL0 1-486)
